Data: patent US20200179528A9, “IMMUNE CELL-TARGETED PARTICLES” (Dana-Farber Cancer Institute, Inc., priority 2015, published 2020)
At least one structure is not confirmed: it was looked up by name or label, or the drawing left a doubt.

Test: Loading of other small molecules into the nanoparticles and their release
Type: physicochemical
Conditions: 10%, 20% or 40% small molecule
Experimental: The formulation procedure used is the same as that used in FIG. 1. Release was measured by absorbance maximum at 280 nm, 300 nm, and 340 nm, respectively. 22.5 mg of PLGA and 7.5 mg of PLGA-PEG were used along with 3 mg (10%), 6 mg (20%), or 12 mg (40%) of small molecule. Note that the release profile can be delayed by loading less drug. Note that the encapsulation efficiency can increase (epacadostat) or decrease (resiquimod, ruxolitinib) by increasing initial loading amount.

## CCOCc1nc2c(N)nc3ccccc3c2n1CC(C)(C)O [resiquimod]
  change of encapsulation efficiency by increasing initial loading amount: decrease
